Test results taken from patent US20160082133A1, “CHEMICAL EXCHANGE SATURATION TRANSFER (CEST) BASED MRI USING REPORTER GENES AND SUBSTRATES AND METHODS THEREOF” (The Johns Hopkins University, priority 2013, published 2016).
Some of these results come from one statement about several compounds together.

The chains behind the UniProt entries cited, without tags or fusion partners.
UniProt P0DTH5, whole entry: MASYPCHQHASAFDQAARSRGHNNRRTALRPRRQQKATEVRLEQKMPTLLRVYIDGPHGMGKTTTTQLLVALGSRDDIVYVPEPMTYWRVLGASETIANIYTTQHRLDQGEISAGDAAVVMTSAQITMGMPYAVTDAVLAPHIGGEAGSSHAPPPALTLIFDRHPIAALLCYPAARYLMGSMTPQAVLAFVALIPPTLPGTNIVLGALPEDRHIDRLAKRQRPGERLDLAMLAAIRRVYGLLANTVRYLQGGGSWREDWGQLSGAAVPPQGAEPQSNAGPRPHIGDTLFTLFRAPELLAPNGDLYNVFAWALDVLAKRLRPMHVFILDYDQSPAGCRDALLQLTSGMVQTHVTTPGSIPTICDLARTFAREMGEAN

Biological target: HSV1-TK (Human herpesvirus 1, UniProt P0DTH5)
Test: Kinase assay (Kinase-Glo) with purified recombinant HSV1-TK
Format: biochemical, herpes simplex virus type-1
Parameters: 6xHis (C); made in house; host or cells: E. coli BL21 (DE3)
Conditions: 5 μM substrate, 20 μM ATP, 2 h

Row | Structure (SMILES) | relative phosphorylation by purified HSV1-TK [%]
1 | C[C@H]1CN([C@H]2C[C@H](O)[C@@H](CO)O2)C(=O)NC1=O [Compound 1, (5S)-5,6-dihydrothymidine] | > 57
2 | CC1(C)CN([C@H]2C[C@H](O)[C@@H](CO)O2)C(=O)NC1=O [Compound 2, 5-Methyl-5,6-dihydrothymidine] | > 57
